Substitutions are numbered along the chain they refer to. Like-named read-outs stand apart in the source and are kept apart here. No constants are given. Whether binding was seen depends on the method and setting. Binding seen in cells or lysates may run through a third protein. Some binding calls cover weakened binding; strength is not graded here. For some of these results: Sequences can lack the tags named with a protein. Blank lines part the entries; values can stand above or below the substance they belong to.
How the values were obtained:
[1] = biological target: T1, GST-tagged NHSL3 fragment 1 (mouse) (UniProt A2A7S8); experiment: pull-down
T1 sequence: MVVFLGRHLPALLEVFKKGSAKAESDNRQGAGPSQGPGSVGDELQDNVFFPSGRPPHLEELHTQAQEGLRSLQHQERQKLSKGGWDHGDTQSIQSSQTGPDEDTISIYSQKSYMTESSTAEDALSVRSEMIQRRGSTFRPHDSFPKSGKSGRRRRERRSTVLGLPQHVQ

By UniProt entry, the sequences of proteins in these tests, tags left out. Residues count along the entry.
UniProt Q03173, residues 1-112: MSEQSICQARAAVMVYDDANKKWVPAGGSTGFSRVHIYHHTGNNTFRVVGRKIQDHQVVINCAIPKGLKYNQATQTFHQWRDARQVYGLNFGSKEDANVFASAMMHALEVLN
UniProt P70460, residues 1-114: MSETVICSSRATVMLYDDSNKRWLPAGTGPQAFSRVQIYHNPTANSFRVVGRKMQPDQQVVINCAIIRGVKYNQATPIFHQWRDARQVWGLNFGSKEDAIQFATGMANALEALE
UniProt Q9Y2A7: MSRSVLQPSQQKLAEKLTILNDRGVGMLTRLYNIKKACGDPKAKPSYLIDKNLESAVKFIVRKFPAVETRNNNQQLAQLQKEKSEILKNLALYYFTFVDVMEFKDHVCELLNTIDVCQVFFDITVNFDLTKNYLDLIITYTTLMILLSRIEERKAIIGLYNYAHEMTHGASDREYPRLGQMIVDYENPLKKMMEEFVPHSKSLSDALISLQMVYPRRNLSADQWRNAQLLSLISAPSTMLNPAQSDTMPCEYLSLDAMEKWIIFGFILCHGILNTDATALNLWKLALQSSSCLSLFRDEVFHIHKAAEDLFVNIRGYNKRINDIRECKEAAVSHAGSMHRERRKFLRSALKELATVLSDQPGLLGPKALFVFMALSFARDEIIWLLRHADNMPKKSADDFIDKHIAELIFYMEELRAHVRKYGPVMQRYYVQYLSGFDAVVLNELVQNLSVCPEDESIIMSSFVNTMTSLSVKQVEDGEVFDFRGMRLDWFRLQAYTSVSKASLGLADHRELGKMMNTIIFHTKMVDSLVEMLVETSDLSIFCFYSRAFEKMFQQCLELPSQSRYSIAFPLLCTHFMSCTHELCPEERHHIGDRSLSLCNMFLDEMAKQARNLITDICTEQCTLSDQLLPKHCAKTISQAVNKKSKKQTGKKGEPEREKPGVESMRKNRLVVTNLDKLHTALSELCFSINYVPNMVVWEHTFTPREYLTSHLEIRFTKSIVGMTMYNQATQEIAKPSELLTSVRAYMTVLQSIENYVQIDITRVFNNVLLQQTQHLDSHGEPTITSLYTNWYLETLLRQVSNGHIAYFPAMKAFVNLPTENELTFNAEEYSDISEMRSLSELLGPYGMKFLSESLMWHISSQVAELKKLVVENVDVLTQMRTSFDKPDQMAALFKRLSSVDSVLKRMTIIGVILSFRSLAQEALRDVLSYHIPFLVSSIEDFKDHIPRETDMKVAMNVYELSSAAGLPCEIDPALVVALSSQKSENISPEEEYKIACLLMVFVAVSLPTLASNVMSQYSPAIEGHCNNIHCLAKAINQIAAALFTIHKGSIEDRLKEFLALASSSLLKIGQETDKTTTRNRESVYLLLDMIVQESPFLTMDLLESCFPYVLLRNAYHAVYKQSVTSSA
UniProt Q9Y6W5: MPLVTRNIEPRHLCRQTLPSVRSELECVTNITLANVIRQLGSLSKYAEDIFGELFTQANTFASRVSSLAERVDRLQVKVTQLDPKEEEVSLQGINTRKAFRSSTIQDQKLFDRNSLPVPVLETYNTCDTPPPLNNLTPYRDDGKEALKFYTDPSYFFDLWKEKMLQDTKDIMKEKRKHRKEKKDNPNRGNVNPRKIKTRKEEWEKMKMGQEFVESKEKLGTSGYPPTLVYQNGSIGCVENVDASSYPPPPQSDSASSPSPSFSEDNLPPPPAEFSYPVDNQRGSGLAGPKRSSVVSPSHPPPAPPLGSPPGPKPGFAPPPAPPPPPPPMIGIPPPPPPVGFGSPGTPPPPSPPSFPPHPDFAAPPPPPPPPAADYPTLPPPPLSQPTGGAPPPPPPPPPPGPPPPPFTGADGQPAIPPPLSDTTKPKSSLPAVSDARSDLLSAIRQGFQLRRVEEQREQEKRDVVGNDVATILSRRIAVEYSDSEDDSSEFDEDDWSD
UniProt Q8CBW3: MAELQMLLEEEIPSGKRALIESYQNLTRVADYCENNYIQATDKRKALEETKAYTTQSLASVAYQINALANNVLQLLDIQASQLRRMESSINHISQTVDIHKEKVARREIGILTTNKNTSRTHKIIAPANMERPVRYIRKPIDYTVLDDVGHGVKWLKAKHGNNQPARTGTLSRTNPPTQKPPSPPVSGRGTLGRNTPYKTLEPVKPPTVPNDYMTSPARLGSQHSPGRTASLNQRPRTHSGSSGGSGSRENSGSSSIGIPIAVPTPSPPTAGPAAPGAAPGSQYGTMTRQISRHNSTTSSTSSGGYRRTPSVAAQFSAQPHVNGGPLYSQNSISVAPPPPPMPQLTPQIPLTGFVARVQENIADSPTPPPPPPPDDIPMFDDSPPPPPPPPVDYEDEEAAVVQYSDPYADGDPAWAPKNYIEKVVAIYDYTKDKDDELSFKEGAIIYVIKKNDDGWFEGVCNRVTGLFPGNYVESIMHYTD
UniProt Q7L576: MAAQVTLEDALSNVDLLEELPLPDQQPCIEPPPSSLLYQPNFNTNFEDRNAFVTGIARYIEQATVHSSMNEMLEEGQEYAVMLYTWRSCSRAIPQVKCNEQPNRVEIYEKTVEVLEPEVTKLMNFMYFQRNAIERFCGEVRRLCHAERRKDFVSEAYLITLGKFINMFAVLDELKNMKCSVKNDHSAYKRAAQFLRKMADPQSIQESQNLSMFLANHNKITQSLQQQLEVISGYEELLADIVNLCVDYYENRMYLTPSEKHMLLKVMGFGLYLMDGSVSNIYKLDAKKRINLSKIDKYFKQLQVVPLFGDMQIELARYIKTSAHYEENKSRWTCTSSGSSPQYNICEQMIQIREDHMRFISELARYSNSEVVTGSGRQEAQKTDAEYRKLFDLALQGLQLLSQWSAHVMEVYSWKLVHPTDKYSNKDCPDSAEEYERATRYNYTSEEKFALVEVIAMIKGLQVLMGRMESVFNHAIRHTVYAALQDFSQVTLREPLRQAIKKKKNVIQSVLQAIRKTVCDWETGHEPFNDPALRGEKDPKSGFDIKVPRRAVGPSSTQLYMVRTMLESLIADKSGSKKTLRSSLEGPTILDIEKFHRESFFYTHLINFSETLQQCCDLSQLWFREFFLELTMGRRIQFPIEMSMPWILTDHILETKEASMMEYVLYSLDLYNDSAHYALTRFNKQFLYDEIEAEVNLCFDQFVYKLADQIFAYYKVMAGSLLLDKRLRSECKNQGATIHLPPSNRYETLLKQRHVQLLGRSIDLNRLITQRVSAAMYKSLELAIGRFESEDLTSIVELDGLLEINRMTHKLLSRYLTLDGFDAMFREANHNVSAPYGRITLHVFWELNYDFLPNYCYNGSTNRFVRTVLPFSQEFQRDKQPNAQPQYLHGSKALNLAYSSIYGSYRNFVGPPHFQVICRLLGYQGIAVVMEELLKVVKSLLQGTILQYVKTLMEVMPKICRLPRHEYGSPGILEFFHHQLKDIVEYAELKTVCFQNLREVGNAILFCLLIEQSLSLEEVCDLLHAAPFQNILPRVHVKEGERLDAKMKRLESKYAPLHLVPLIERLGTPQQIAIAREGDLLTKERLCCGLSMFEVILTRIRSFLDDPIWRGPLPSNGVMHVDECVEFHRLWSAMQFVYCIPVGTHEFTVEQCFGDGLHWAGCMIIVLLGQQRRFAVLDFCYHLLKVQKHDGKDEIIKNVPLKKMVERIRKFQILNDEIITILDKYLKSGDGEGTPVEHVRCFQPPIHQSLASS
UniProt Q96F07: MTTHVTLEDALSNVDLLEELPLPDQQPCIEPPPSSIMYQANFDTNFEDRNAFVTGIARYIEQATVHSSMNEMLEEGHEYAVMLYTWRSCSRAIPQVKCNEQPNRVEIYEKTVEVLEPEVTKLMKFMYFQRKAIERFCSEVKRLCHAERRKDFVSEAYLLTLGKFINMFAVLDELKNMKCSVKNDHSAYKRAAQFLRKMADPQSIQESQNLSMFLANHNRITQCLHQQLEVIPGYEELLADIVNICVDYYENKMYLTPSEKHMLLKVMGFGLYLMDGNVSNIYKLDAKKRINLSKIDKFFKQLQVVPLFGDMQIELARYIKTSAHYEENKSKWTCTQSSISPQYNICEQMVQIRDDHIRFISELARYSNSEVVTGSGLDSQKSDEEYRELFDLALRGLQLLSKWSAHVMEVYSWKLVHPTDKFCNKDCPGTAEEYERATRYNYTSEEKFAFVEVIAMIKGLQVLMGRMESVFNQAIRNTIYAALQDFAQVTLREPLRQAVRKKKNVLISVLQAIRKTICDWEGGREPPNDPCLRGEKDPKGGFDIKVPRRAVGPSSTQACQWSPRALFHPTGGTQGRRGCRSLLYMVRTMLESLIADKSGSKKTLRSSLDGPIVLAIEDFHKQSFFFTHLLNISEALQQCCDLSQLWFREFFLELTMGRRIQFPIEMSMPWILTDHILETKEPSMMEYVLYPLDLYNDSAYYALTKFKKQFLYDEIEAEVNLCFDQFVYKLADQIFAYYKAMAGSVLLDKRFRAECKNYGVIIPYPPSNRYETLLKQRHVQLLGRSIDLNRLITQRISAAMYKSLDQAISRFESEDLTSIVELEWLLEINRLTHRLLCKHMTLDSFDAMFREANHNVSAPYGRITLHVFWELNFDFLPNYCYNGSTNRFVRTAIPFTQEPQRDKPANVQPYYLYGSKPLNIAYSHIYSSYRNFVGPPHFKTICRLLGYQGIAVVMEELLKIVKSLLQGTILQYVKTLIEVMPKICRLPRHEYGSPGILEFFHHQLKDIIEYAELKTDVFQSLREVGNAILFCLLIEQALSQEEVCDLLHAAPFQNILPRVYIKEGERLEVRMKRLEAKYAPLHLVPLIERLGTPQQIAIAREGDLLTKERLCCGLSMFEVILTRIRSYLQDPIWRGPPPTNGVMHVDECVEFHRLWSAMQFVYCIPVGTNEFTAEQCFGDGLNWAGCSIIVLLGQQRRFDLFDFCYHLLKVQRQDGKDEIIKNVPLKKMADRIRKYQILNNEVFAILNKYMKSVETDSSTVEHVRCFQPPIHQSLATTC
UniProt Q8BH43: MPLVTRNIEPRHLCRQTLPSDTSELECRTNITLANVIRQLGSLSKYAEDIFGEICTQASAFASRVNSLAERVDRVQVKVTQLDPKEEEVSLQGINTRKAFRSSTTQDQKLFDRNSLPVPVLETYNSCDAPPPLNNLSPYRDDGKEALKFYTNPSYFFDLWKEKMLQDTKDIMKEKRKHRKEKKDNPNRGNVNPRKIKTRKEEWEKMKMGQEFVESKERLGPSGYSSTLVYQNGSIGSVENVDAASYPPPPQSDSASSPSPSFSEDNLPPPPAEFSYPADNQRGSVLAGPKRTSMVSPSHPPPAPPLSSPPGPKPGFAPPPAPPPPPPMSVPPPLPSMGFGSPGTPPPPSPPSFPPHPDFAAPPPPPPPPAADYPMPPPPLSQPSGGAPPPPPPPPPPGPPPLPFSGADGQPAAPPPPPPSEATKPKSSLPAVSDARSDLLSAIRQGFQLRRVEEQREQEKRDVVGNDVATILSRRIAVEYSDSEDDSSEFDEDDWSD

[2] = biological target: T2, NHSL3ΔSH3-EGFP (Abi SH3 domain binding site mutated) (mouse) (UniProt A2A7S8); experiment: pull-down
T2 sequence: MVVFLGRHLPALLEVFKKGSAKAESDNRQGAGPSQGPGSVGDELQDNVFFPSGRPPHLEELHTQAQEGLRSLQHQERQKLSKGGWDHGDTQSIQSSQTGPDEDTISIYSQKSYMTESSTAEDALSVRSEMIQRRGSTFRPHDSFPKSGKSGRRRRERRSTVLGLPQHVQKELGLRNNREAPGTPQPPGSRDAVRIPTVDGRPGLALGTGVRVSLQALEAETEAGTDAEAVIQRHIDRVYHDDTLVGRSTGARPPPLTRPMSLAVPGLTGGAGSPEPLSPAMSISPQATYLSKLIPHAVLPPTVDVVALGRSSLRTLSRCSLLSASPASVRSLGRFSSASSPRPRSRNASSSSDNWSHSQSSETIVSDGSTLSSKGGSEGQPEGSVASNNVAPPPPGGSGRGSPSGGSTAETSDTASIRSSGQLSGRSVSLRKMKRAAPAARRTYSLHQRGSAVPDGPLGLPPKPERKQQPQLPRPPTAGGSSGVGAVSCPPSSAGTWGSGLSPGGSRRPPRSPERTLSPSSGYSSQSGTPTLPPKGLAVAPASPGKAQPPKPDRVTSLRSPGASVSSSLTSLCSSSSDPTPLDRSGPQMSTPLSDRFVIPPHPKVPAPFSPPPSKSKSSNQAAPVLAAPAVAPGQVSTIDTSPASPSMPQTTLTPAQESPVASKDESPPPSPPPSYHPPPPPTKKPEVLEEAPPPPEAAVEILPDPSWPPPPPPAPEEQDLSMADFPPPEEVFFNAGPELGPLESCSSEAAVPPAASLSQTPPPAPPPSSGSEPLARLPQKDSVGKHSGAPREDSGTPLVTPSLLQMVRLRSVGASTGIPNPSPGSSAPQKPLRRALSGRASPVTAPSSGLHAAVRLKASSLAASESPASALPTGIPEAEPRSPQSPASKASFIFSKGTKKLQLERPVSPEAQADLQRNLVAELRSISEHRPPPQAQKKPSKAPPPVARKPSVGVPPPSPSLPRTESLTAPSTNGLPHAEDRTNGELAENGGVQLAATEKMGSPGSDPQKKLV

[3] = biological target: T2, NHSL3ΔSH3-EGFP (Abi SH3 domain binding site mutated) (mouse); experiment: pull-down; remark: listed apart in the source
[4] = biological target: NHSL3-EGFP (wild-type mouse NHSL3 isoform 1c, C-terminally tagged with EGFP) (mouse) (UniProt A2A7S8); experiment: co-IP
[5] = biological target: T2, NHSL3ΔSH3-EGFP (Abi SH3 domain binding site mutated) (mouse); experiment: pull-down; remark: listed apart in the source
[6] = biological target: T1, GST-tagged NHSL3 fragment 1 (mouse); experiment: pull-down; remark: listed apart in the source
[7] = biological target: T3, NHSL3ΔFP4-1/2-EGFP (both EVH1 domain binding motifs mutated) (mouse) (UniProt A2A7S8); experiment: co-IP
T3 sequence: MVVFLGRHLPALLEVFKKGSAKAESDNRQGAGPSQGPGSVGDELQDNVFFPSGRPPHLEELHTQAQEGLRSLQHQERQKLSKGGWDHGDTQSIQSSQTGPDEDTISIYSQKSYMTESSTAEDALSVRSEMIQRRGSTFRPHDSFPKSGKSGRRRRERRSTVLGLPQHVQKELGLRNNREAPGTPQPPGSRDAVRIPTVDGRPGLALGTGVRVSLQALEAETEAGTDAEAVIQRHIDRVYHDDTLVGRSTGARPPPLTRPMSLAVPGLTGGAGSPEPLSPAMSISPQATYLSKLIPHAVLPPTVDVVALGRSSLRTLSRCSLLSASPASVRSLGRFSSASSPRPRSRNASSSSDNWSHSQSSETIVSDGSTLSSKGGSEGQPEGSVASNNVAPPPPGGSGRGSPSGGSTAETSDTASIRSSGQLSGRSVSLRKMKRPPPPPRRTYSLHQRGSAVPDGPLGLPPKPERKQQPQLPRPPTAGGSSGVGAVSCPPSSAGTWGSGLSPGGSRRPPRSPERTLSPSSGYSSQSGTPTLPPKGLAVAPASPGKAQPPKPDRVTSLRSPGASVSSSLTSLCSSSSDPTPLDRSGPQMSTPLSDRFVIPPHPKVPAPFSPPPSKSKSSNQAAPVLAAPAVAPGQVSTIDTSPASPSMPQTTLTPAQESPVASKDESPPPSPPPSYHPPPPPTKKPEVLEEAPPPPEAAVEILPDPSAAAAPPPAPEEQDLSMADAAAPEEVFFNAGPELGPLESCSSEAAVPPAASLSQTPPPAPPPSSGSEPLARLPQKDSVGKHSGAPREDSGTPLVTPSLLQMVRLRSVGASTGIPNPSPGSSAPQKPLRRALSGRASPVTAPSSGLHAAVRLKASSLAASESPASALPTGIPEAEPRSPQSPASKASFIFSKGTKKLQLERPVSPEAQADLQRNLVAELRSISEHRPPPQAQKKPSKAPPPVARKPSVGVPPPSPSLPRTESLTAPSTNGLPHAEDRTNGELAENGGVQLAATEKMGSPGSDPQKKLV

[8] = biological target: T2, NHSL3ΔSH3-EGFP (Abi SH3 domain binding site mutated) (mouse); experiment: co-IP
[9] = biological target: T4, NHSL3ΔSH3ΔFP4-1/2-EGFP (Abi SH3 binding site and both EVH1 binding motifs mutated) (mouse) (UniProt A2A7S8); experiment: co-IP
T4 sequence: T3 sequence with P436A, P437A, P439A, P440A

[10] = biological target: T5, GST-EVH1 domain of EVL (1-113) (mouse) (UniProt P70429); experiment: pull-down
T5 sequence: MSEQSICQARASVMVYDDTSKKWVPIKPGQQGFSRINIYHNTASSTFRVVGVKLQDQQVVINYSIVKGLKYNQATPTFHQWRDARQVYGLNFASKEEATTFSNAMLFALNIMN

[11] = biological target: GST-EVH1 domain of Mena (1-112) (mouse) (UniProt Q03173); experiment: pull-down
[12] = biological target: GST-EVH1 domain of VASP (1-114) (mouse) (UniProt P70460); experiment: pull-down
[13] = biological target: endogenous NHSL3 (mouse (endogenous in B16-F1)) (UniProt A2A7S8); experiment: co-IP

Substance: Myc-Nap1 (from UniProt Q9Y2A7 1-1128)
binding [1]: binds | binding [3]: binds | binding [5]: binds | binding [6]: binds | binding [4]: binds | binding [7]: binds | binding [8]: binds | binding [9]: binds

Substance: Myc-Scar/WAVE2 (from UniProt Q9Y6W5 1-498)
binding [4]: binds | binding [7]: binds | binding [8]: binds | binding [9]: binds

Substance: endogenous Abi1 (from UniProt Q8CBW3 1-481)
binding [13]: binds

Now from value to substance:

binding [1]: binds | binding [2]: binds | binding [3]: binds | binding [4]: binds
Substance: Myc-CYFIP1 (from UniProt Q7L576 1-1253)

binding [2]: binds | binding [5]: binds | binding [6]: binds | binding [4]: binds | binding [7]: binds | binding [8]: binds | binding [9]: binds
Substance: Myc-CYFIP2 (from UniProt Q96F07 1-1278)

binding [10]: no binding | binding [11]: binds | binding [12]: binds
Substance: NHSL3-EGFP (wild-type mouse NHSL3 isoform 1c, C-terminally tagged with EGFP) (from UniProt A2A7S8 1-1013)

binding [13]: binds
Substance: endogenous Scar/WAVE2 (from UniProt Q8BH43 1-497)

Reference: doi:10.1101/2025.04.03.647056
